PubChem BioAssay AID686938 | Drosophila RNAi Screening Center – 2013
Assay: 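Fly genes required for calcium entry once internal stores are emptied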 (primary screen). Cell system: Drosophila S2R+ cells. Knock-down reagent: long dsRNA against Drosophila genes, about 0.25 µg dsRNA per well, roughly 10,000 cells. Timing: 5 days of knock-down before the calcium assay. Challenge: thapsigargin (SERCA pump blocker) to empty calcium stores; entry signal taken 4 min after adding it. Measurement: 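Duplicate raw fluo-4 intensities per well from a plate reader, at rest and four minutes after thapsigargin emptied calcium stores; entry-to-rest ratio filled for only some wells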. Scale: calcium entry signal: higher = stronger calcium signal after store depletion; resting calcium signal: higher = higher resting calcium signal. Rule for the call: 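Hit if the duplicate-averaged plate z-score for entry over resting signal is under −3; wells with weak total dye signal (Fmax z < −2) or more than 5 off-targets removed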. Meaning of the calls: active = strongly reduced calcium entry; inactive = no strong reduction.
The deposit covers about 23,000 reagents; below is a random part of those that have a named target and a result. In the full data, 75 (0.33%) got an active call. 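Raw plate signals without normalisation; calls rest on plate z-scores that were not deposited; ratio present for only 364 wells.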 A plus sign joins genes that one reagent is predicted to hit. The record does not give: the dose of the treatment.

| predicted target | dsRNA | calcium entry signal, replicate 1 (fluorescence units) | calcium entry signal, replicate 2 (fluorescence units) | resting calcium signal, replicate 1 (fluorescence units) | resting calcium signal, replicate 2 (fluorescence units) | Outcome |
| --- | --- | --- | --- | --- | --- | --- |
| CG8611 | DRSC19340 | 2.66e7 | 3.78e7 | 1.31e7 | 1.52e7 | inactive |
| CG43077 | DRSC19168 | 3.02e7 | 3.45e7 | 1.54e7 | 1.58e7 | inactive |
| ATPsynGL | DRSC03027 | 2.56e7 | 4.09e7 | 1.25e7 | 1.88e7 | inactive |
| CG32532 | DRSC19556 | 3.23e7 | 4.11e7 | 1.97e7 | 1.90e7 | inactive |
| CG32532 | DRSC19557 | 4.19e7 | 5.29e7 | 2.22e7 | 2.35e7 | inactive |
| CG32532 | DRSC19558 | 3.21e7 | 4.28e7 | 1.96e7 | 1.99e7 | inactive |
| CG32532 | DRSC21370 | 3.66e7 | 3.61e7 | 2.07e7 | 1.67e7 | inactive |
| park + Targ3 | DRSC11617 | 3.94e7 | 4.51e7 | 1.73e7 | 3.05e7 | inactive |
| Gr92a | DRSC21631 | 3.32e7 | 4.40e7 | 1.83e7 | 1.94e7 | inactive |
| amx | DRSC18736 | 4.03e7 | 6.63e7 | 2.08e7 | 3.24e7 | inactive |
| Ugt305A1 | DRSC08541 | 3.61e7 | 4.25e7 | 1.91e7 | 2.00e7 | inactive |
| CG43339 | DRSC02466 | 4.72e7 | – | 2.30e7 | – | inactive |
| BRWD3 | DRSC15369 | 4.45e7 | 2.78e7 | 2.24e7 | 1.43e7 | inactive |
| BRWD3 | DRSC16032 | 3.23e7 | 3.91e7 | 1.78e7 | 1.53e7 | inactive |
| Sec31 | DRSC07131 | 4.84e7 | 4.42e7 | 1.93e7 | 1.91e7 | inactive |
| AMPKalpha | DRSC18714 | 4.39e7 | 5.43e7 | 2.19e7 | 2.59e7 | inactive |
| Ns1 | DRSC15529 | 1.80e7 | 2.39e7 | 1.12e7 | 5.92e7 | inactive |
| Exd2 | DRSC16105 | 3.34e7 | 3.54e7 | 1.59e7 | 1.81e7 | inactive |
| Spn43Ab | DRSC06781 | 3.21e7 | 3.88e7 | 1.57e7 | 1.75e7 | inactive |
| CCHa1-R | DRSC06456 | 4.15e7 | 5.95e7 | 1.93e7 | 2.69e7 | inactive |
| CCHa1-R | DRSC06715 | 4.60e7 | 5.62e7 | 2.14e7 | 2.67e7 | inactive |
| CG14841 | DRSC14965 | 2.29e7 | 4.86e7 | 1.22e7 | 7.53e7 | inactive |
| beat-IIb | DRSC13219 | 9.17e7 | 2.36e7 | 3.67e7 | 1.20e7 | inactive |
| beat-IIb | DRSC14816 | 3.88e7 | 5.65e7 | 1.76e7 | 6.39e7 | inactive |
| beat-IIb | DRSC15546 | 3.95e7 | 4.76e7 | 1.85e7 | 6.59e7 | inactive |
| lncRNA:CR32661 + lncRNA:CR43157 | DRSC19794 | 4.67e7 | 6.09e7 | 2.23e7 | 2.90e7 | inactive |
| CG6337 | DRSC06977 | 3.74e7 | 4.97e7 | 1.89e7 | 2.10e7 | inactive |
| CG6337 | DRSC21870 | 2.63e7 | 6.60e7 | 1.36e7 | 2.84e7 | inactive |
| CG34277 + CG31542 | DRSC21544 | 3.79e7 | 3.70e7 | 2.25e7 | 1.78e7 | inactive |
| mRpS30 | DRSC20107 | 3.70e7 | 4.42e7 | 1.54e7 | 1.82e7 | inactive |
| CG17110 | DRSC15173 | 4.89e7 | 5.44e7 | 2.50e7 | 2.27e7 | inactive |
| Prosbeta1 | DRSC07159 | 1.80e7 | 2.18e7 | 1.24e7 | 1.32e7 | inactive |
| CG10560 | DRSC14256 | 3.04e7 | 5.65e7 | 1.66e7 | 2.55e7 | inactive |
| CtsL3 | DRSC12171 | 3.95e7 | 4.48e7 | 1.72e7 | 2.01e7 | inactive |
| Sf3a2 | DRSC09801 | 2.81e7 | 2.19e7 | 2.33e7 | 1.26e7 | inactive |
| MESR4 | DRSC06901 | 5.00e7 | 5.32e7 | 2.62e7 | 2.83e7 | inactive |
| xmas | DRSC21306 | 1.52e7 | 1.31e7 | 1.03e7 | 8.47e6 | active |
| xmas | DRSC22178 | 2.92e7 | 3.74e7 | 1.40e7 | 1.95e7 | inactive |
| CG12490 | DRSC04123 | 3.84e7 | 4.43e7 | 1.95e7 | 1.97e7 | inactive |
| CG13461 | DRSC10008 | 3.59e7 | 5.54e7 | 1.89e7 | 2.15e7 | inactive |

Reprinted from the listing for reference:
| predicted target | dsRNA | calcium entry signal, replicate 1 (fluorescence units) | calcium entry signal, replicate 2 (fluorescence units) | resting calcium signal, replicate 1 (fluorescence units) | resting calcium signal, replicate 2 (fluorescence units) | Outcome |
| --- | --- | --- | --- | --- | --- | --- |
| BRWD3 | DRSC16032 | 3.23e7 | 3.91e7 | 1.78e7 | 1.53e7 | inactive |
| Sec31 | DRSC07131 | 4.84e7 | 4.42e7 | 1.93e7 | 1.91e7 | inactive |
| AMPKalpha | DRSC18714 | 4.39e7 | 5.43e7 | 2.19e7 | 2.59e7 | inactive |
| Ns1 | DRSC15529 | 1.80e7 | 2.39e7 | 1.12e7 | 5.92e7 | inactive |
| Exd2 | DRSC16105 | 3.34e7 | 3.54e7 | 1.59e7 | 1.81e7 | inactive |
| Spn43Ab | DRSC06781 | 3.21e7 | 3.88e7 | 1.57e7 | 1.75e7 | inactive |
